Source: PubChem BioAssay AID1259254 (NCATS, 2017)

- Assay: 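Gene knock-downs that lead to re-replication, shown by excess G2 DNA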 (primary screen)
- Cell system: human HCT116 colorectal cancer cells
- Reagents: single siRNA against human genes
- Time to read-out: 3 days
- Read-out: 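Nuclei stained with Hoechst and imaged; cell-cycle phase assigned by DNA content; G2 share scaled per plate, non-targeting siRNA 0%, GMNN siRNA 100%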
- Scale: G2 robust z-score and G2 cells, % of GMNN control: higher = more G2 cells, more excess DNA replication; raw share of cells in G2: higher = larger share of cells with G2 DNA content
- Call rule: 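An siRNA counts as active if its G2 robust z-score lies at least 5 MADs above the screen median; here such calls match roughly 38% of GMNN control or more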
Shown is a random part of about 59,000 deposited reagents. About 1,550 of them (2.6%) count as active. 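G2 share is only a proxy for re-replication; each gene was hit by three separate siRNAs, and active genes were retested.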 Raw values vary from plate to plate and are shown uncorrected. A number with no mark means an inactive call. The numbers tell different reagents against one gene apart. Not stated in the record: the amount of reagent.

target	reagent	G2 robust z-score	G2 cells, % of GMNN control	raw share of cells in G2 (%)
LHX2 (GeneID 9355)	1	-0.108	2.21	6.04
LHX2 (GeneID 9355)	2	-1.02	-4.23	2.61
LHX2 (GeneID 9355)	3	-0.684	-1.85	4.05
NPM3 (GeneID 10360)	1	-0.64	-1.53	3.02
NPM3 (GeneID 10360)	2	-1.3	-6.18	3.23
NPM3 (GeneID 10360)	3	-0.744	-2.27	2.39
SULT1A2 (GeneID 6799)	1	1.03	10.2	9.12
SULT1A2 (GeneID 6799)	2	-0.741	-2.24	3.78
SULT1A2 (GeneID 6799)	3	-0.986	-3.97	2.64
KARS1 (GeneID 3735)	1	-0.834	-2.9	3.99
KARS1 (GeneID 3735)	2	-0.89	-3.3	4.43
KARS1 (GeneID 3735)	3	0.0567	3.37	5.44
PKM (GeneID 5315)	1	-0.393	0.205	5.68
PKM (GeneID 5315)	2	-0.936	-3.62	2.75
PKM (GeneID 5315)	3	1.11	10.8	9.03
RWDD4 (GeneID 201965)	1	1.64	14.5	8.81
RWDD4 (GeneID 201965)	2	-0.622	-1.41	2.49
RWDD4 (GeneID 201965)	3	-0.242	1.26	3.16
EIF1AD (GeneID 84285)	1	-0.598	-1.24	3.7
EIF1AD (GeneID 84285)	2	-0.498	-0.535	3.3
EIF1AD (GeneID 84285)	3	-0.795	-2.63	1.61
TAOK3 (GeneID 51347)	1	-0.971	-3.86	4.39
TAOK3 (GeneID 51347)	2	-0.785	-2.56	4.26
TAOK3 (GeneID 51347)	3	-0.11	2.19	4.38
RANGAP1 (GeneID 5905)	1	1.28	12	9.1
RANGAP1 (GeneID 5905)	2	-0.35	0.508	4.87
RANGAP1 (GeneID 5905)	3	3.17	25.3	12.6
ACADS (GeneID 35)	1	0.0159	3.08	5.77
ACADS (GeneID 35)	2	1.32	12.3	9.45
ACADS (GeneID 35)	3	-0.984	-3.96	2.52
EVPL (GeneID 2125)	1	0.084	3.56	6.53
EVPL (GeneID 2125)	2	1.3	12.1	7.97
EVPL (GeneID 2125)	3	2.5	20.6	13.1
RPS4Y1 (GeneID 6192)	1	1.29	12	10.1
RPS4Y1 (GeneID 6192)	2	-0.593	-1.2	3.75
RPS4Y1 (GeneID 6192)	3	5.82 (active)	43.9	19.2
SMPDL3A (GeneID 10924)	1	2.19	18.4	13.7
SMPDL3A (GeneID 10924)	2	-0.244	1.25	6.24
SMPDL3A (GeneID 10924)	3	1.93	16.6	9.2
MDM2 (GeneID 4193)	1	5.09 (active)	38.8	20.4
MDM2 (GeneID 4193)	2	1.83	15.9	8.43
MDM2 (GeneID 4193)	3	0.961	9.73	9.32
SYNJ2 (GeneID 8871)	1	0.252	4.74	6.34
SYNJ2 (GeneID 8871)	2	0.386	5.69	6.02
SYNJ2 (GeneID 8871)	3	-0.363	0.415	3.62
LINC01561 (GeneID 404216)	1	-0.527	-0.741	3.54
LINC01561 (GeneID 404216)	2	4.89	37.4	18.4
LINC01561 (GeneID 404216)	3	1.21	11.5	9.54
RSL24D1 (GeneID 51187)	1	0.43	5.99	6.14
RSL24D1 (GeneID 51187)	2	0.583	7.07	7.22
RSL24D1 (GeneID 51187)	3	-0.831	-2.88	2.34
LASP1 (GeneID 3927)	1	-0.688	-1.88	4.73
LASP1 (GeneID 3927)	2	-0.176	1.73	6.03
LASP1 (GeneID 3927)	3	1.31	12.2	7.21
CCNI (GeneID 10983)	1	-0.632	-1.48	3.36
CCNI (GeneID 10983)	2	-0.935	-3.61	5.05
CCNI (GeneID 10983)	3	-0.084	2.38	6.73
APOA4 (GeneID 337)	1	-0.508	-0.61	4.51
APOA4 (GeneID 337)	2	-0.597	-1.23	4.64
APOA4 (GeneID 337)	3	3.33	26.4	13.8
DMRTC1 (GeneID 63947)	1	-0.228	1.37	5.18
DMRTC1 (GeneID 63947)	2	-0.752	-2.32	3.57
DMRTC1 (GeneID 63947)	3	-0.294	0.897	2.93
PPL (GeneID 5493)	1	0.602	7.2	8.04
PPL (GeneID 5493)	2	0.574	7.01	6.99
PPL (GeneID 5493)	3	0.0308	3.18	4.5
WASL (GeneID 8976)	1	-0.414	0.0555	4.73
WASL (GeneID 8976)	2	0.923	9.46	8.59
WASL (GeneID 8976)	3	-0.797	-2.64	3.34
